Literature values in patent EP2578211A1, “6-DECAPRENYL-2,3-DIMETHOXY-5-METHYL-1,4-BENZOQUINONE-BASED COMPOSITION AND METHOD FOR THE PRODUCTION THEREOF” (Obschestvo S Ogranichennoi Otvetstvennostju "Accent", priority 2010, dated 2011).

Details: Temporal pharmacopoeial monograph 42 - 1978 - 90

solubility in water: water-insoluble
SMILES: COC1=C(OC)C(=O)C(C/C=C(\C)CC/C=C(\C)CC/C=C(\C)CC/C=C(\C)CC/C=C(\C)CC/C=C(\C)CC/C=C(\C)CC/C=C(\C)CC/C=C(\C)CCC=C(C)C)=C(C)C1=O [6-decaprenyl-2,3-dimethoxy-5-methyl-1,4-benzoquinone]
